PubChem BioAssay AID485353 (National Center for Advancing Translational Sciences (NCATS), 2010)
About 610 (0.18%) of roughly 330,000 compounds were called active. Inconclusive means that the source gave no clear call. Such entries were picked first, then a sample of the others. The call rests on the fitted dose curve. Where the call is inconclusive, the potency comes from a doubtful curve fit.

Assay: qHTS of Yeast-based Assay for SARS-CoV PLP; further: nearly all actives have a fitted effect of over 55% in size
Conditions: S. cerevisiae expressing SARS-CoV PLpro; Potency: growth rescue; series mostly up to 32.9 µM
Potency means the concentration at half of the fitted maximal effect.

| SMILES | Potency |
| --- | --- |
| O=C(Nc1ccnn1C1CCN(Cc2c[nH]c3ccccc23)CC1)c1ccccc1 | inconclusive: 3.16 µM [activator, single point] |
| Cc1cc(-c2n[nH]c(=S)n2/N=C/c2sccc2C)n[nH]1 | inconclusive: 10 µM [activator, single point] |
| Cn1c(CN2CCN(c3cccc(Cl)c3)CC2)nc2ccccc21 | inconclusive: 15.8 µM [activator, partial curve, poor fit] |
| COc1ccc(S(=O)(=O)N(C)CC(=O)N2CCN(c3ccc(F)cc3)CC2)cc1OC | inactive |
| CC(C)(C)NC(=O)C(c1cccs1)N(Cc1ccc(F)cc1)C(=O)c1csnn1 (stereo unspecified) | inactive |
| CCn1c(C)cc(O)c(C(=O)Nc2cccc(Cl)c2)c1=O | inconclusive: 20 µM [activator, single point] |
| O=C(CCl)c1cc2c3c(c1)CC(=O)N3CCC2 | inconclusive: 2.51 µM [activator, full curve] |
| CC(C)Nc1nc2n(c(=O)n1)CCN2C(C)C | inconclusive: 20 µM [activator, single point] |
| CCNc1ccccc(-c2ccc3ccccc3n2)c1=O | active: 11.2 µM |
| CC(Oc1ccccc1)C(=O)NC1CCN(Cc2ccccc2)CC1 (stereo unspecified) | inconclusive: 12.6 µM [activator, partial curve] |
| Clc1ccc(CNC23CN4CN(CN(C4)C2)C3)c(Cl)c1 | inconclusive: 17.8 µM [activator, single point] |
| COc1ccc(C(O)P(=O)(OC2CCCCC2)c2ccc(N(C)C)cc2)cc1OC (stereo unspecified) | inconclusive: 20 µM [activator, single point] |
| C=CCN(C)CCCNC(=O)/C=N/O | inconclusive: 4.47 µM [activator, single point] |
| O=C(NCc1ccccn1)Nc1ccc(Br)cc1Cl | inactive |
| CC(C)N(C)NC(=S)Nc1ccccc1 | inconclusive: 12.6 µM [activator, partial curve] |
| CC1=CC(C)(C)NC(=S)N1c1ccc(C)c(C)c1 | inconclusive: 8.91 µM [activator, partial curve] |
| Cc1cccc(C(O)(C(=O)NNc2ccc3ccccc3n2)c2cccc(C)c2)c1 | inconclusive: 20 µM [activator, single point] |
| COc1ccc(-c2nc(CSCC(=O)NCc3ccc4c(c3)OCO4)c(C)o2)cc1OC | inconclusive: 0.316 µM [activator, full curve, poor fit] |
| CCC(=O)c1c[nH]c(C(=O)NCCc2ccccn2)c1 | inactive |
| CCc1ccccc1-n1c(SCC(=O)Nc2ccc3c(c2)OCCO3)nc2[nH]ncc2c1=O | inconclusive: 15.8 µM [activator, single point] |
| Cc1ccc(-n2c(SCC(=O)Nc3ccc4c(c3)OCO4)nnc2-c2ccoc2C)cc1 | inconclusive: 20 µM [activator, single point] |
| Cc1cccc2sc(NNC(=O)c3ccc(S(=O)(=O)N4CC(C)CC(C)C4)cc3)nc12 (stereo unspecified) | active: 3.98 µM |
| Clc1cccc(Cl)c1COc1ccncc1 | inconclusive: 14.1 µM [activator, single point] |
| Cc1ccc(-n2nc(C)c(NC(=O)CCl)c2C)cc1 | inconclusive: 3.98 µM [activator, partial curve] |

Rewritten bar-delimited: entries from further up
SMILES | Potency
Cc1cc(-c2n[nH]c(=S)n2/N=C/c2sccc2C)n[nH]1 | inconclusive: 10 µM [activator, single point]
Cn1c(CN2CCN(c3cccc(Cl)c3)CC2)nc2ccccc21 | inconclusive: 15.8 µM [activator, partial curve, poor fit]
COc1ccc(S(=O)(=O)N(C)CC(=O)N2CCN(c3ccc(F)cc3)CC2)cc1OC | inactive
CC(C)(C)NC(=O)C(c1cccs1)N(Cc1ccc(F)cc1)C(=O)c1csnn1 (stereo unspecified) | inactive
O=C(CCl)c1cc2c3c(c1)CC(=O)N3CCC2 | inconclusive: 2.51 µM [activator, full curve]
Clc1ccc(CNC23CN4CN(CN(C4)C2)C3)c(Cl)c1 | inconclusive: 17.8 µM [activator, single point]
COc1ccc(C(O)P(=O)(OC2CCCCC2)c2ccc(N(C)C)cc2)cc1OC (stereo unspecified) | inconclusive: 20 µM [activator, single point]
C=CCN(C)CCCNC(=O)/C=N/O | inconclusive: 4.47 µM [activator, single point]
O=C(NCc1ccccn1)Nc1ccc(Br)cc1Cl | inactive
CC(C)N(C)NC(=S)Nc1ccccc1 | inconclusive: 12.6 µM [activator, partial curve]
COc1ccc(-c2nc(CSCC(=O)NCc3ccc4c(c3)OCO4)c(C)o2)cc1OC | inconclusive: 0.316 µM [activator, full curve, poor fit]
CCc1ccccc1-n1c(SCC(=O)Nc2ccc3c(c2)OCCO3)nc2[nH]ncc2c1=O | inconclusive: 15.8 µM [activator, single point]
Cc1ccc(-n2nc(C)c(NC(=O)CCl)c2C)cc1 | inconclusive: 3.98 µM [activator, partial curve]

Continued.

| SMILES | Potency |
| --- | --- |
| COc1ccc(Cl)cc1NC(=O)COC(=O)Cc1cccs1 | inactive |
| CCC(=O)Nc1sccc1C(=O)OC | inconclusive: 3.55 µM [activator, partial curve] |
| CCOC(=O)c1c(NC(=O)COc2ccccc2C#N)sc2c1CC(C)(C)NC2(C)C | inconclusive: 20 µM [activator, single point] |
| CCOC(=O)C1=C(O)CSC1=Nc1ccc(Cl)cc1 | inconclusive: 20 µM [activator, single point] |
| Cc1cc(-n2c(SCC(=O)NCCC3=CCCCC3)nc3n[nH]c(C)c3c2=N)ccc1Cl | inactive |
| Cc1cc(/C=C2\C(=O)NC(=O)N(C)C2=O)c(C)n1-c1ccc2c(c1)OCO2 | inconclusive: 10 µM [activator, single point] |
| C=CCn1c(=O)c(C(=O)NCCN(CC)CC)c(O)c2ccccc21 | inconclusive: 3.98 µM [activator, single point] |
| Cc1n(C)c2cc(Cl)ccc2[n+]1Cc1ccccc1 | inactive |
| CCN(CC)S(=O)(=O)c1ccc(N2CCOCC2)c(NC(=O)CC23CC4CC(CC(Br)(C4)C2)C3)c1 | inconclusive: 1 µM [activator, partial curve] |
| O=C(COC(=O)Cc1ccc(Cl)cc1)NCc1cccs1 | inactive |
| CCOc1ccc(C(C(=O)NC2CCCC2)N(Cc2ccccc2)C(=O)c2nsc(Cl)c2Cl)cc1 (stereo unspecified) | inconclusive: 3.16 µM [activator, single point] |
| CNC(=O)C1CCC(=O)N1Cc1ccc(C)cc1 (stereo unspecified) | inconclusive: 4.47 µM [activator, single point] |
| O=C(c1ccco1)[C@@H]1[C@@H]2C(=O)N(c3ccc(F)cc3)C(=O)[C@@H]2[C@H]2C=Cc3ccccc3N21 | inactive |
| Cc1ccc(S(=O)(=O)N2CCC(=O)N(C(COCc3ccc(Cl)cc3Cl)Cc3ccccc3)CC2)cc1 (stereo unspecified) | inactive |
| CCOC(=O)[C@H]1[C@H]2COc3ccc(OC)cc3[C@@H]2N2C(=O)CN(C)C(=O)[C@@]12C | inconclusive: 17.8 µM [activator, single point] |
| O=C(O)c1ccc(N/N=C/c2ccc(-c3ccccc3Cl)o2)cc1 | inactive |
| CCOc1cc(/C=N/NC(=O)C(OC)c2ccccc2)ccc1O (stereo unspecified) | inconclusive: 20 µM [activator, single point] |
| CSc1ccc(Cl)c(C(=O)NCc2ccco2)c1 | inconclusive: 22.4 µM [activator, single point] |
| O=C(NCCN1CCCc2ccccc21)C1CCC(=O)N(CCc2ccccc2)C1 (stereo unspecified) | inactive |
| COc1ccc(NC2CC(=O)N(c3cc([N+](=O)[O-])ccc3C)C2=O)cc1 (stereo unspecified) | inactive |
| COc1ccc(C)cc1N(C(=O)c1ccccc1F)c1nc2ccccc2s1 | inactive |
| CCCCCn1c(=N)c(S(=O)(=O)c2ccc(Cl)cc2)cc2c(=O)n3cccc(C)c3nc21 | inactive |
| CC(C)(C)n1nc2c(c1NC(=O)c1ccc(C(F)(F)F)cc1)CS(=O)(=O)C2 | inconclusive: 3.98 µM [activator, single point] |
| CCCc1nc([N+](=O)[O-])c(S(=O)(=O)c2ccccc2)n1CC(C)C | inconclusive: 22.4 µM [activator, single point] |

| SMILES | Potency |
| --- | --- |
| O=S(=O)(c1ccccc1)N1CCN(C2CCCCCCC2)CC1 | inconclusive: 22.4 µM [activator, single point] |
| COc1ccc(CCNCc2ccsc2)cc1OC | inconclusive: 22.4 µM [activator, single point] |
| O=C(O)c1ccc(Br)c(S(=O)(=O)N2CCCC2)c1 | inconclusive: 0.398 µM [activator, partial curve, poor fit] |
| COC(=O)CSc1nnc(C)c(=O)[nH]1 | inconclusive: 10 µM [activator, partial curve] |
| Cc1csc(NC(=O)Cc2ccccc2Cl)n1 | inconclusive: 20 µM [activator, single point] |
| O=C(Nc1ccc(S(=O)(=O)N2CCCC2)cc1)c1cccc(OC(F)F)c1 | inconclusive: 10 µM [activator, partial curve] |
| O=C(CC(=O)NCc1ccccc1)NCc1ccccc1 | inactive |
| C=CCn1c(=O)c(C(=O)Nc2ncccc2O)c(O)c2ccccc21 | inconclusive: 12.6 µM [activator, partial curve] |
| Cc1[nH]c(C)c(S(=O)(=O)N2c3ccccc3CC2C)c1C(=O)N1CCCCC1 (stereo unspecified) | inactive |
| Cn1c(=O)[nH]c(=O)c2c1nc(Br)n2CCC(=O)c1ccccc1 | inconclusive: 20 µM [activator, single point] |
| CC(=NC(C)C)C1=C(O)CCC1=O | inconclusive: 4.47 µM [activator, single point] |
| O=C(COc1ccccc1Cl)NCCc1ccc2c(c1)OCCO2 | inconclusive: 0.398 µM [activator, full curve, poor fit] |
| O=C(NC(=S)NC1CCCCC1)c1ccc(Cl)cc1 | inconclusive: 3.55 µM [activator, single point] |
| CC1CN(C(=O)CSc2cn(CC(=O)N3CCOCC3)c3ccccc23)CC(C)O1 (stereo unspecified) | inconclusive: 14.1 µM [activator, single point] |
| Cc1cc(OC(F)F)ccc1NC(=O)Nc1ccc2c(c1)OCO2 | inconclusive: 3.16 µM [activator, single point] |
| O=C1CCC(C(=O)OCC(=O)c2ccccc2)N1 (stereo unspecified) | inactive |
| Cc1nnsc1C(=O)N/N=C/c1ccc2ccccc2c1O | active: 1 µM |
| CCCCSc1nc(C)cc(SCC(=O)N/N=C/c2cccc(OC)c2O)n1 | inconclusive: 10 µM [activator, single point] |
| COC(=O)c1ccc(OC(=O)c2ccc(OC)c(OC)c2)c(OC)c1 | inactive |
| CC(C)C(=O)NC(c1ccccc1)c1cc([N+](=O)[O-])c2cccnc2c1O (stereo unspecified) | inconclusive: 3.98 µM [activator, single point] |
| CCCN1CCN(C(=O)CS(=O)(=O)Cc2nc(-c3cccc(OC)c3)oc2C)CC1 | inconclusive: 0.316 µM [activator, full curve, poor fit] |
| Cc1c(O)ccc(-c2[nH]ncc2-c2nc3ccccc3s2)c1O | inconclusive: 4.47 µM [activator, single point] |
| O=C(NCCN1CCOCC1)c1csc2c1CCCC2 | inconclusive: 3.98 µM [activator, single point] |
